Values quoted from earlier work in patent US20160223559A1, “TETRAZINE-CONTAINING COMPOUNDS AND SYNTHETIC METHODS THEREOF” (The Regents of the University of California, priority 2015, published 2016).
At least one compound was matched to its structure with a doubt left.

Conditions: in 0.1M NaOH, excitation 480 nm; cited from earlier work

O=C1OC2(c3ccc(O)cc3Oc3cc(O)ccc32)c2ccccc21 [fluorescein]
quantum yield: 0.925
